{"source": "patent US20140275226", "key": {"[1]": {"test_system": "Factor IXa / factor IX (Homo sapiens)", "assay": "inhibition of the protein", "settings": "2'-F C and U (all pyrimidines); 120 nM, 1 pM TF: no appreciable effect on thrombin generation (peak 219.57 nM vs 221.56 no aptamer); protein in an extract; variant of 9.3T"}, "[2]": {"test_system": "Factor Xa / factor X (Homo sapiens)", "assay": "inhibition of the protein", "settings": "2'-F C and U (all pyrimidines); 1000 nM, 5 pM TF: no appreciable effect on thrombin generation (peak 391.12 nM vs 325.43 no aptamer); protein in an extract; variant of 11F7T"}, "[3]": {"test_system": "Factor VIIa / factor VII (Homo sapiens)", "assay": "inhibition of the protein", "settings": "2'-F C and U (all pyrimidines); 30 nM, 5 pM TF: no appreciable effect on thrombin generation (peak 357.63 nM vs 325.43 no aptamer); protein in an extract; variant of 7S-1"}, "[4]": {"target": "Prothrombin (factor II) (Homo sapiens) (UniProt P00734)", "assay": "inhibition of the protein", "settings": "2'-F C and U (all pyrimidines); 5000 nM, 5 pM TF: no appreciable effect on thrombin generation (peak 312.12 nM vs 325.43 no aptamer); protein in an extract; variant of R9D-14T (R9D-14T7)"}, "[5]": {"target": "Prothrombin (factor II) (Homo sapiens) (UniProt P00734)", "assay": "binding assay", "settings": "2'-F C and U (all pyrimidines), CITED Bompiani 2012, apparent Kd, protein in an extract"}}, "note": "For some assays here: Negatives hold for the conditions tested. For some assays here: The exact form of at least one protein or probe is not confirmed. For some assays here: Where cells or extracts were used, other partners may take part."}
{"sequence": "AUGGGGACUGUGCCGCGUAAUGCUGCCUCCCCAU [9.3Tmut]", "values": [{"measurement": "functional effect of the aptamer", "setting": "[1]", "value": "not active"}]}
{"sequence": "GAGAGCCCCAGCGAGAUAAUACUUGUACCCGCUCUU [11F7Tmut]", "values": [{"measurement": "functional effect of the aptamer", "setting": "[2]", "value": "not active"}]}
{"sequence": "GGGAGGACGAUGCGGACUCCUCCAAGCGACCAACAUCGGUCUUAUUUCAGAUCAACAGACGACUCGCUGAGGAUCCGAGA [7S-1mut]", "values": [{"measurement": "functional effect of the aptamer", "setting": "[3]", "value": "not active"}]}
{"sequence": "GGCGGUCGAUCACACAGUUCAAACGUAAUAAGCCGGCGUACGAGGCAGACGACUCGCC [R9D-14Tmut]", "values": [{"measurement": "functional effect of the aptamer", "setting": "[4]", "value": "not active"}]}
{"sequence": "GGCGGUCGAUCACACAGUUCAAACGUAAUAAGCCAAUGUACGAGGCAGACGACUCGCC [R9D-14T (R9D-14T7)]", "values": [{"measurement": "Kd", "setting": "[5]", "value": 10, "unit": "nM"}]}
